Experimental data: article PMC8274477
These are yes or no findings as the source states them, for the method shown. Some results given as binding are weak or reduced against the parent protein; the word gives no strength.

Protein sequences, listed by entry. Tags and fused reporters are not part of them.
UniProt Q9UKM9: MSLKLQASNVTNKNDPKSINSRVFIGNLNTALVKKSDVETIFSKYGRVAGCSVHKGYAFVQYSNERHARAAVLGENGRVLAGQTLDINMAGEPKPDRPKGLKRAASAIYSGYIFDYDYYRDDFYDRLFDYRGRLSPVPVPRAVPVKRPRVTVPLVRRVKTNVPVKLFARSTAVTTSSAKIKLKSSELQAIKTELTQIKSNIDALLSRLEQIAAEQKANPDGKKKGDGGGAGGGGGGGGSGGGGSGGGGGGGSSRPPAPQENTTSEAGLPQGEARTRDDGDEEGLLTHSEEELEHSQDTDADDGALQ
UniProt Q8WUD1: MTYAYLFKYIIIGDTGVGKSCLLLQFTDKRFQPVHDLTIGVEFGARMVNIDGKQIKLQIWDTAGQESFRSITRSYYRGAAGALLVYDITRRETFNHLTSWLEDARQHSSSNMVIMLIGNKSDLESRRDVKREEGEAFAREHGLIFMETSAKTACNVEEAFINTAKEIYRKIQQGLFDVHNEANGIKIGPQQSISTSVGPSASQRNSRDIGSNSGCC

Legend:
Experiment in all cases: peptide or protein array; HuProt human proteome microarray; 5 ug/5 ml biotin-labelled LUBAC or OTULIN in solution, 1 h at room temperature; Cy5-streptavidin, scanned at 635 nm; BSA as negative control; hits: Z-score >= 3 and I_(Mean_Ratio) >= 1.4; both purified
RBMS1 (human) = biological target: T1, RBMS1 (human) (UniProt P29558)
T1 sequence: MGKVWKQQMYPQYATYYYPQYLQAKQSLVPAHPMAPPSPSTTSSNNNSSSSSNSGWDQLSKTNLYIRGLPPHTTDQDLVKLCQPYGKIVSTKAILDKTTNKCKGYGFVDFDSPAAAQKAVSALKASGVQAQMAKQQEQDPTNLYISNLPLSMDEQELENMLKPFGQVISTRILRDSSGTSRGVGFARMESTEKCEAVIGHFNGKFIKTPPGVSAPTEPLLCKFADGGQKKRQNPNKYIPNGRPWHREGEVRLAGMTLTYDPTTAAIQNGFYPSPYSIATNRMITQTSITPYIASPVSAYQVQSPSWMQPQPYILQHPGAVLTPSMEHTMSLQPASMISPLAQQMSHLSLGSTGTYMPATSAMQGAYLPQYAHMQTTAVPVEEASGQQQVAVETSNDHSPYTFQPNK

ITPKB (human) = biological target: T2, ITPKB (human) (UniProt P27987)
T2 sequence: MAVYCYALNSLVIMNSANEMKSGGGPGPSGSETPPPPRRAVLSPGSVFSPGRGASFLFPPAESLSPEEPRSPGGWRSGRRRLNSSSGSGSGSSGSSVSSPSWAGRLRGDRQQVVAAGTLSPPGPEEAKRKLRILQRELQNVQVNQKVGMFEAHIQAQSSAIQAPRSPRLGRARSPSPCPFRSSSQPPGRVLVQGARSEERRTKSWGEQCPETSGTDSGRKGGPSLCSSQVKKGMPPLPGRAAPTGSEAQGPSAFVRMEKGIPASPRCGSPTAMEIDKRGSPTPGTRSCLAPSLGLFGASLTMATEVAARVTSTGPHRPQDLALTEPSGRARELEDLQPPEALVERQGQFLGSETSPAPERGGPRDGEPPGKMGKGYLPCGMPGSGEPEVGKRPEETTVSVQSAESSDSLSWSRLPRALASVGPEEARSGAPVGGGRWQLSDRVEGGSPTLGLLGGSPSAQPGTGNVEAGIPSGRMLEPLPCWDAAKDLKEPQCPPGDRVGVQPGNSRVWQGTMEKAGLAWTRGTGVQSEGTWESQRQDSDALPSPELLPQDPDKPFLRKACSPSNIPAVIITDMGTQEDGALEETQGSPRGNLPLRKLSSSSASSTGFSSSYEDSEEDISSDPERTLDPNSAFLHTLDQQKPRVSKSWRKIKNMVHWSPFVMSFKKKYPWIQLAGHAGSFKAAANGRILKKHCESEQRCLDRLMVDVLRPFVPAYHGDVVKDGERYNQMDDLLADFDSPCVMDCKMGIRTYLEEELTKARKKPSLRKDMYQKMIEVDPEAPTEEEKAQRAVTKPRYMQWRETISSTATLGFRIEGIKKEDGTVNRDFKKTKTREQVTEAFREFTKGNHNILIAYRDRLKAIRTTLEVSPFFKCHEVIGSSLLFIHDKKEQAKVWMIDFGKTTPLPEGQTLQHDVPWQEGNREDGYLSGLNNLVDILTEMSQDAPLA

RALY (human) = RALY (human) (UniProt Q9UKM9)
RAB2B (human) = RAB2B (human) (UniProt Q8WUD1)
DTX2 (human) = biological target: T3, DTX2 (human) (UniProt Q86UW9)
T3 sequence: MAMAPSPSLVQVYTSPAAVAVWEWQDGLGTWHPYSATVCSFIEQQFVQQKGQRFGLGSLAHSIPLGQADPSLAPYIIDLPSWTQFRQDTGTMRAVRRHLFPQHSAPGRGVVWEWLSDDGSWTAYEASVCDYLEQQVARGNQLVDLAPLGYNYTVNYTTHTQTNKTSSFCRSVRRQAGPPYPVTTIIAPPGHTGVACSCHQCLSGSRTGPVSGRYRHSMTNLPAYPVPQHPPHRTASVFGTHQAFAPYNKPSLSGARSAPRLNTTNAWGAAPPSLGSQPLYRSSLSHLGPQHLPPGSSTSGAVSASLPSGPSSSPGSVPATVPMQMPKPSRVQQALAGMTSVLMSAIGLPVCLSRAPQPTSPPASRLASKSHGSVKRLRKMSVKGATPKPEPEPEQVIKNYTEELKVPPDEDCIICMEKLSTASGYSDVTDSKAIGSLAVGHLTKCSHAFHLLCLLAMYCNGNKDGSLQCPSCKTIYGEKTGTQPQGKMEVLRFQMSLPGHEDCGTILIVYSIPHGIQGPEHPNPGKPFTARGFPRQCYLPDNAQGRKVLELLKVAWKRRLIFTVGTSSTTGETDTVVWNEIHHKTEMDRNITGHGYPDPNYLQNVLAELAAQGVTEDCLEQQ

ODAM (human) = biological target: T4, ODAM (human) (UniProt A1E959)
T4 sequence: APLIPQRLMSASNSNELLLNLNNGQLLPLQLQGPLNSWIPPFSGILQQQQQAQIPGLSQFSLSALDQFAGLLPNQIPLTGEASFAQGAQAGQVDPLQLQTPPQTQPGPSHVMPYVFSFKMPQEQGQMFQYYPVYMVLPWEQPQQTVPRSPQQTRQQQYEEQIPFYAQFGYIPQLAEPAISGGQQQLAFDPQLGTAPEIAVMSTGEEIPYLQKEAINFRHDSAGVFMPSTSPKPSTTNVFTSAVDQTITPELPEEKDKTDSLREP

Measured: binding

linear ubiquitin chain assembly complex (LUBAC), purified as HIS-tagged HOIP with the subunit HOIL-1, biotin-labelled (from UniProt Q96EP0 1-1072; Q9BYM8 1-510)
binds: all assays above
